26 compounds from PubChem BioAssay AID330 (DTP/NCI, 2004) can be followed below.

For this test, the system named is P388 leukemia ip, CD2F1 mice, survival T/C. As to the kind of experiment: NCI In Vivo Anticancer Drug Screen. Data for tumor model P388 Leukemia (intraperitoneal) in CD2F1 (CDF1) mice. The following applies: T/C endpoint: median survival time, higher T/C = longer survival.
Setting [1] is: dose: 200.0 mg/kg/injection, schedule: Q01DX009 (ip), vehicle: saline with Tween-80.
The mark [2] stands for this setting: dose: 100.0 mg/kg/injection, schedule: Q01DX005 (ip), vehicle: Klucel (hydroxypropylcellulose) (HPC).
Where [3] appears, read: dose: 200.0 mg/kg/injection, schedule: Q01DX009 (ip), vehicle: saline.
Setting [4] is: dose: 120.0 mg/kg/injection, schedule: Q01DX005 (ip), vehicle: Klucel (hydroxypropylcellulose) (HPC).
[5] abbreviates: dose: 240.0 mg/kg/injection, schedule: Q01DX005 (ip), vehicle: Klucel (hydroxypropylcellulose) (HPC).
Where [6] appears, read: dose: 100.0 mg/kg/injection, schedule: Q01DX009 (ip), vehicle: saline with Tween-80.
The mark [7] stands for this setting: dose: 400.0 mg/kg/injection, schedule: Q01DX001 (ip), vehicle: saline with Tween-80.
Where [8] appears, read: dose: 6.25 mg/kg/injection, schedule: Q01DX009 (ip), vehicle: Klucel (hydroxypropylcellulose) (HPC).
The mark [9] stands for this setting: dose: 200.0 mg/kg/injection, schedule: Q01DX005 (ip), vehicle: saline with Tween-80.
[10] abbreviates: dose: 240.0 mg/kg/injection, schedule: Q01DX005 (ip), vehicle: saline with Tween-80.

The list does not hold the whole screen: it gathers tests that were run many times, whatever their T/C, doses with no T/C, and many T/C values between a quarter and a half above the control. Other doses and runs of a compound stand elsewhere. T/C gives the treated animals as a percentage of the vehicle group. Some entries give survivors of the animals treated and no T/C: the source files T/C as zero there, which appears to mark a toxic dose or a test without result, not a measured value. Some survivor counts are full or nearly so, which does not show that the dose was tolerated: the source hardly ever lists a survival T/C far under the control, and the zero likely stands for such cases as well. Counts of survivors are from the toxicity check (mostly the fifth day) where no day follows; animals may have died later. Schedules are NCI's codes, taken here to give the interval after Q, in days (D) or hours (H), and the number of doses after X. Some entries hold several experiments; their values stand side by side, smallest first. Where survival is the endpoint, the PubChem record calls one and a half times the control and up active, and a quarter to a half above the control has no call in these data; cut-offs in other NCI protocols can differ. Some T/C values carry the count of animals alive at the toxicity check (mostly the fifth day); where none is given, no animal had died by that day.

With `CC[C@@]1(O)C[C@H](OC2CC(N(C)C)C(OC3CC(O)C(OC4CC(O)C(O)C(C)O4)C(C)O3)C(C)O2)c2c(cc3c(c2O)C(=O)c2c(O)ccc(O)c2C3=O)[C@H]1C(=O)OC` (some centres undefined), the T/C was 138 % of control (dose: 0.67 mg/kg/injection, schedule: Q04DX003 (ip), vehicle: water) and 148 % of control (dose: 1.0 mg/kg/injection, schedule: Q04DX003 (ip), vehicle: water). Besides, the survivor count (dose: 15.0 mg/kg/injection, schedule: Q01DX001 (ip), vehicle: other) is 2 of 6.

`Clc1ccc(CC(Cn2ccnc2)c2ccccc2Cl)cc1` (centres undefined): the survivor count under setting [1] is given as 5 of 6.

On to `CC1CCC(C(C)(C)c2ccccc2)CC1OC(=O)/C=C/CC(C)(C)CC=C1C2CCC1N(C(=O)OCC(Cl)(Cl)Cl)N2C(=O)OCC(Cl)(Cl)Cl` (centres undefined), for which, under setting [2], the survivor count is on record as 6 of 6.

With `CCS1=C2C(=O)CCCC2=Nc2ccccc21` (centres undefined), the survivor count is given as 0 of 6 (dose: 100.0 mg/kg/injection, schedule: Q01DX005 (ip), vehicle: saline) and 0 of 6 (dose: 200.0 mg/kg/injection, schedule: Q01DX005 (ip), vehicle: saline).

Regarding `Cc1nn(-c2ccc(S(=O)(=O)[O-])cc2)c([O-])c1N=[N+](C)c1ccc(-c2ccc(N=Nc3ccc4c(S(=O)(=O)[O-])cc(S(=O)(=O)[O-])c(N)c4c3[O-])c([O-])c2)cc1[O-].[Cu+2].[Cu+2].[Na+]`, the survivor count reads like this: (dose: 3.12 mg/kg/injection, schedule: Q01DX009 (ip), vehicle: saline with Tween-80) 6 of 6; (dose: 6.25 mg/kg/injection, schedule: Q01DX009 (ip), vehicle: saline with Tween-80) 6 of 6; (dose: 25.0 mg/kg/injection, schedule: Q01DX009 (ip), vehicle: saline) 6 of 6; (dose: 50.0 mg/kg/injection, schedule: Q01DX009 (ip), vehicle: saline) 6 of 6; (dose: 100.0 mg/kg/injection, schedule: Q01DX009 (ip), vehicle: saline) 5 of 6; under setting [3], 6 of 6.

As for `CC1=NN(c2cc(S(=O)(=O)O)ccc2Cl)C(=O)C1`, the survivor count (dose: 400.0 mg/kg/injection, schedule: Q01DX009 (ip), vehicle: saline) is 5 of 6.

For `COCCO[Si](OCCOC)(OCCOC)OCCOC`, under “dose: 200.0 mg/kg/injection, schedule: Q01DX009 (ip), vehicle: Klucel (hydroxypropylcellulose) (HPC)”, the survivor count was 3 of 6.

In the case of `CCN(CC)C(=O)c1cccc(COc2ccc(N3C(N)=NC(N)=NC3(C)C)cc2Cl)c1`, the T/C runs as follows: (dose: 16.5 mg/kg/injection, schedule: Q01DX009 (ip), vehicle: saline with Tween-80) 127 % of control; (dose: 25.0 mg/kg/injection, schedule: Q01DX009 (ip), vehicle: saline sonified) 131 % of control; (dose: 25.0 mg/kg/injection, schedule: Q01DX009 (ip), vehicle: saline with Tween-80) 140 % of control. In addition, the survivor count runs as follows: (dose: 37.5 mg/kg/injection, schedule: Q01DX009 (ip), vehicle: saline with Tween-80) 3 of 6; (dose: 200.0 mg/kg/injection, schedule: Q04DX003 (ip), vehicle: saline sonified) 5 of 6.

Consider `NC(CCC(=O)NC(CS)C(=O)O)C(=O)O` (centres undefined), for which, under setting [3], the survivor count is listed as 0 of 6.

As for `CCN(c1ccccc1)S(=O)(=O)c1cc(N)ccc1C`, the survivor count (dose: 100.0 mg/kg/injection, schedule: Q01DX009 (ip), vehicle: Klucel (hydroxypropylcellulose) (HPC)) is given as 6 of 6.

As for `CCOC(=O)CCC(=O)Oc1ccc2c(c1)C(=O)c1ccc(OC(=O)CCC(=O)OCC)cc1C2=O`, the survivor count runs as follows: (dose: 15.0 mg/kg/injection, schedule: Q01DX005 (ip), vehicle: Klucel (hydroxypropylcellulose) (HPC)) 6 of 6; (dose: 30.0 mg/kg/injection, schedule: Q01DX005 (ip), vehicle: Klucel (hydroxypropylcellulose) (HPC)) 6 of 6; (dose: 60.0 mg/kg/injection, schedule: Q01DX005 (ip), vehicle: Klucel (hydroxypropylcellulose) (HPC)) 6 of 6; under setting [4], 6 of 6; under setting [5], 5 of 6.

As for `CC1CC=[N+]([O-])C1(C)C` (centres undefined), the survivor count runs as follows: under setting [6], 6 of 6; under setting [1], 6 of 6.

In the case of `C[C@]12CC[C@H](OC(=O)/C=C\c3ccccc3N(CCCl)CCCl)CC1CC[C@@H]1C2CC[C@]2(C)NC(=O)CCC12` (some centres undefined), the T/C reads like this: (dose: 200.0 mg/kg/injection, schedule: Q01DX001 (ip), vehicle: saline with Tween-80) 125 % of control; under setting [7], 134 and 140 % of control.

Consider `Nc1ccccc1N1CCNCC1`, for which the survivor count is 0 of 6 (dose: 100.0 mg/kg/injection, schedule: Q04DX003 (ip), vehicle: saline) and 0 of 6 (dose: 200.0 mg/kg/injection, schedule: Q04DX003 (ip), vehicle: saline).

As to `CCc1cnc(=S)n(-c2ccccc2)c1`, the survivor count under setting [7] is listed as 0 of 6.

On to `CCN(CC)c1ccc2c(cc1=O)[C@@H](NC(C)=O)CCc1cc(OC)c(OC)c(OC)c1-2`, for which the T/C was 106, 110, 127, 133, 140 % of control (dose: 0.78 mg/kg/injection, schedule: Q01DX009 (ip), vehicle: Klucel (hydroxypropylcellulose) (HPC)); 117, 118, 136, 149, 160 % of control (dose: 1.56 mg/kg/injection, schedule: Q01DX009 (ip), vehicle: Klucel (hydroxypropylcellulose) (HPC)); 117, 138, 190, 216 % of control (dose: 3.12 mg/kg/injection, schedule: Q01DX009 (ip), vehicle: Klucel (hydroxypropylcellulose) (HPC)); 95 [5 of 6 alive] and 117 % of control [5 of 6 alive] under setting [8]. Moreover, the survivor count under setting [8] is 4 of 6, 5 of 6, 6 of 6; the survivor count (dose: 12.5 mg/kg/injection, schedule: Q01DX009 (ip), vehicle: Klucel (hydroxypropylcellulose) (HPC)) is 0 of 6 and 3 of 6; the survivor count (dose: 25.0 mg/kg/injection, schedule: Q01DX009 (ip), vehicle: Klucel (hydroxypropylcellulose) (HPC)) is 0 of 6.

Take `COc1cc(OC)c(NC(=O)Oc2cc(C)c(I)cc2C)cc1Cl`: the survivor count (dose: 50.0 mg/kg/injection, schedule: Q01DX009 (ip), vehicle: saline + alcohol) is 5 of 6.

For the compound `O=C1C=C(c2ccccc2)S(=O)(=O)c2ccc(O)cc21`, the survivor count under setting [9] is listed as 0 of 6.

Consider `N#Cc1cnc(N)[nH]c1=O`, for which the survivor count by setting is: under setting [4], 0 of 6; under setting [5], 0 of 6.

Regarding `S=c1sscc1-c1ccc2ccccc2c1`, the survivor count (dose: 100.0 mg/kg/injection, schedule: Q04DX003 (ip), vehicle: saline with Tween-80) is recorded as 6 of 6.

Regarding `O=NNc1ccc(F)cn1`, the T/C (dose: 6.25 mg/kg/injection, schedule: Q01DX009 (ip), vehicle: water) is 125 and 126 % of control; the T/C (dose: 12.5 mg/kg/injection, schedule: Q01DX009 (ip), vehicle: water) was 141 % of control. For the same compound, the survivor count (dose: 50.0 mg/kg/injection, schedule: Q01DX009 (ip), vehicle: water) is listed as 5 of 6.

On to `CCCCCCCN(CCCCCCC)CC(O)c1c(OC)c2ccccc2c2ccccc12` (centres undefined), for which the survivor count under setting [6] is 6 of 6.

Turning to `O=C1OCC/C1=C/O/C=C1\CCOC1=O`, the survivor count under setting [10] is on record as 3 of 6.

Turning to `COC(=O)c1cc2cc3ccccc3cc2cc1C(=O)OC`, the survivor count is listed as 6 of 6 (dose: 60.0 mg/kg/injection, schedule: Q01DX005 (ip), vehicle: saline with Tween-80); 6 of 6 (dose: 120.0 mg/kg/injection, schedule: Q01DX005 (ip), vehicle: saline with Tween-80); 6 of 6 under setting [10].

Take `CCCCCCCCCCCCCCCCCCOCC(CO)OC` (centres undefined): the T/C under setting [9] was 125 % of control.

For the compound `CCCCN(CCCC)c1ccc(C(=N)c2ccc(N(C)C)cc2)cc1`, the survivor count is 0 of 5 (dose: 25.0 mg/kg/injection, schedule: Q01DX005 (ip), vehicle: Klucel (hydroxypropylcellulose) (HPC)); 0 of 5 (dose: 50.0 mg/kg/injection, schedule: Q01DX005 (ip), vehicle: Klucel (hydroxypropylcellulose) (HPC)); 0 of 5 under setting [2]; 0 of 5 (dose: 200.0 mg/kg/injection, schedule: Q01DX005 (ip), vehicle: Klucel (hydroxypropylcellulose) (HPC)).
